In this experiment the target is INTS5 (UniProt Q6P9B9). In words: cryo-EM structure.

Chains of the proteins cited; added tags and fusions are not shown. Lines headed by an entry give the natural chain unless they say otherwise; changes in a name come on top.
UniProt Q6P9B9: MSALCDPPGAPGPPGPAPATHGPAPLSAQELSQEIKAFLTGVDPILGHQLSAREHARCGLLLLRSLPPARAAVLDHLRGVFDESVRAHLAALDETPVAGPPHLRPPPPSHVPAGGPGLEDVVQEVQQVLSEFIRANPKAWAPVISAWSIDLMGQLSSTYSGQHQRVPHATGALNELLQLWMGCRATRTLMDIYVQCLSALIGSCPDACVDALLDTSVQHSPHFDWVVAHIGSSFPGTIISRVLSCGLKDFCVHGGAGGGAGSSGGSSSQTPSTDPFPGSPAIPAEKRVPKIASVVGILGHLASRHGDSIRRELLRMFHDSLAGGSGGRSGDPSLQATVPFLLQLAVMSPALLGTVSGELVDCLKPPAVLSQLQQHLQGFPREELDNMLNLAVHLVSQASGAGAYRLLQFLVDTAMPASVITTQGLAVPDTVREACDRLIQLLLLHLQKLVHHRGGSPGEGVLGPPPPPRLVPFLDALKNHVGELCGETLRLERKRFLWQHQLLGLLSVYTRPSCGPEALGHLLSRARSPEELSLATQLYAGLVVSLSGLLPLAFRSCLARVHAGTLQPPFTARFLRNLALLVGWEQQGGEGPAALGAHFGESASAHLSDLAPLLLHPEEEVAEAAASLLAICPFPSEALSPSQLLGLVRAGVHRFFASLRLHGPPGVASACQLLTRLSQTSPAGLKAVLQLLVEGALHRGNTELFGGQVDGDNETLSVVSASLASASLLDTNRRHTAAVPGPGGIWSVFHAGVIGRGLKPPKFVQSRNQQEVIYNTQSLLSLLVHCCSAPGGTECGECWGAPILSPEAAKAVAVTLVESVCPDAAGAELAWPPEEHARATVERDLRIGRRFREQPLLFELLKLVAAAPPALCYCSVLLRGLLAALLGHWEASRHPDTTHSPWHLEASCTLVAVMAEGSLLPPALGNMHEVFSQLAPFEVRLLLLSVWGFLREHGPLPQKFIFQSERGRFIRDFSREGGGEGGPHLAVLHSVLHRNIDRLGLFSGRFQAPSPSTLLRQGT
UniProt Q96N11: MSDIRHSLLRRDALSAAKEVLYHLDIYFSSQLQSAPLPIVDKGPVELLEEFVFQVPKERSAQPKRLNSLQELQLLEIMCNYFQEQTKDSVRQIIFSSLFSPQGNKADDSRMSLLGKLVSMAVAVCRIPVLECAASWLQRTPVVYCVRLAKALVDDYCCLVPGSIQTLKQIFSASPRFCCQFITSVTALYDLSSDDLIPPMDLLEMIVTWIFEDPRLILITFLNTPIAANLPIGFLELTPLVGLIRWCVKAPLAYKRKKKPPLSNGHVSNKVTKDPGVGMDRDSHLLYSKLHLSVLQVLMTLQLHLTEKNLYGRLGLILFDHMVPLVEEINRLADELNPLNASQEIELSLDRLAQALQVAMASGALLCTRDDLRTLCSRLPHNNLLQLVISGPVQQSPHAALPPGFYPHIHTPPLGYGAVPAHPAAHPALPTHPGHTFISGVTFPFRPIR
UniProt Q75QN2: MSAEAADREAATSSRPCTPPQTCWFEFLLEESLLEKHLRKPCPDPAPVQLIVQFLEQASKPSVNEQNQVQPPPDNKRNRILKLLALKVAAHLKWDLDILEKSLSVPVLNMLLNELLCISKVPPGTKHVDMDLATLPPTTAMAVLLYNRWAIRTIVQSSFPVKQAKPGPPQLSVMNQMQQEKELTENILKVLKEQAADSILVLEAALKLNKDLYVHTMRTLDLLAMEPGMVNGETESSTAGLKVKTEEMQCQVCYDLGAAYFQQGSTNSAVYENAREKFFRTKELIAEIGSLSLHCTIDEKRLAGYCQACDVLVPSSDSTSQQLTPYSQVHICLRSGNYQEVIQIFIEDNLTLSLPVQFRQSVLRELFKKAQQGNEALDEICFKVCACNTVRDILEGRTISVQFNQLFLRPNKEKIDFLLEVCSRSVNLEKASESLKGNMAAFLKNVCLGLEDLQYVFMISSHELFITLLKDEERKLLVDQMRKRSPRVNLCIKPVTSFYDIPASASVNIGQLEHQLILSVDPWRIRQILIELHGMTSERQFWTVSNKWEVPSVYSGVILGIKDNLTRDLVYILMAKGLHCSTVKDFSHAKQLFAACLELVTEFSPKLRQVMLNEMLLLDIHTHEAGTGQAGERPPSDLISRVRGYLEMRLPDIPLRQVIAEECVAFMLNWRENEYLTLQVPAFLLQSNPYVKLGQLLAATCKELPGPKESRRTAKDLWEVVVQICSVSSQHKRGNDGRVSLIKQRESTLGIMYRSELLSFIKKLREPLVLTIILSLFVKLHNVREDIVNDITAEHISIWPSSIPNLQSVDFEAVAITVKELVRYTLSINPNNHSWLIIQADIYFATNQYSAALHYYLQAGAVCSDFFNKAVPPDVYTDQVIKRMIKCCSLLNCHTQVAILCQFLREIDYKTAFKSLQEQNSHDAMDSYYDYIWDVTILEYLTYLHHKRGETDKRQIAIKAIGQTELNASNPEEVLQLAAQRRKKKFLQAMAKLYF

No constants are given. Whether binding was seen depends on the method and setting. Binding calls can cover weak binding; strength is not graded here.

With INTS15 (from UniProt Q96N11 1-449), the binding result is recorded as “binds”.
In the case of INTS8 (from UniProt Q75QN2 1-995), the binding entry is reported as “binds”.
